“Also recorded” adds a separate entry of the source. At least one peptide structure holds a part that was inferred or is arguable (an end, a ring closure or a residue).
Biological target: T1, PAC1 (Homo sapiens, UniProt P41586)
T1 sequence (P41586 21-468): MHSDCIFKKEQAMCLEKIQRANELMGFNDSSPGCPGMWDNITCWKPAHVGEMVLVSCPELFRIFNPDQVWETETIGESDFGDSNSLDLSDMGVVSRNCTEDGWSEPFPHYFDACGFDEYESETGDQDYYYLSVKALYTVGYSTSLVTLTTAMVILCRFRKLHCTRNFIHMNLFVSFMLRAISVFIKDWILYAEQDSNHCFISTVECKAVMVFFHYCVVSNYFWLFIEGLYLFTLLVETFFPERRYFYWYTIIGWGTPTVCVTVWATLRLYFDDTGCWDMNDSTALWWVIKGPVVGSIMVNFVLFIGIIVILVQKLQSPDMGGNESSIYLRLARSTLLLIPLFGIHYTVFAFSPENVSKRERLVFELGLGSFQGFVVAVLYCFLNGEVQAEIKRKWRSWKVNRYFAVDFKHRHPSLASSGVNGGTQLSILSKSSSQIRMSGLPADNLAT
Experiment: PAC1-CHO calcium flux, FLIPR antagonist mode versus PACAP1-27
Type: cell-based
Set-up: host or cells: CHO (clonal line PAC1-CHO)
Method: The construct was electroporated into Chinese Hamster Ovary (CHO) cells, and selected for with 500 μg/mL of G418. The resulting population was screened for high expressing clones, and one such clone selected for further analysis. […] This cell line was used for all molecular pharmacology experiments. […] All molecular pharmacology experiments were carried out using a FLIPR Tetra from Molecular Devices (Sunnyvale, CA), set to image calcium flux using the manufacturer's recommended settings and protocols. […] The cells were recovered overnight in growth medium (as above). The next day, the growth medium was replaced with Calcium 6 dye (Molecular Devices) using the manufacturer recommended buffer with 2.5 mM probenecid. […] The resulting calcium flux was recorded, and the maximum-minimum response over the entire observation time calculated and reported as the mean±SEM (4 wells per point). For antagonist mode experiments, a concentration curve (variable concentration mode) or fixed amount (fixed concentration mode) of antagonist was added to the cells, and allowed to equilibrate for 2 minutes. […] The resulting data was analyzed using a Gaddum/Schild EC50 shift model, (Schild, 1957, Gaddum, 1957) designed to analyze competitive antagonism. (Lazareno and Birdsall, 1993) The data output was the pA2 (nM) and the Schild Slope, a measure of how closely the experimental data fits the operational model of competitive antagonism (Prism). For all analyses, each independent experiment performed in quadruplicate is considered to be a sample size of 1. The pharmacology values are calculated separately from each experiment, then combined and reported as the mean±SEM for the entire set of experiments.

SMILES: CSCC[C@H](NC(=O)[C@H](CCC(N)=O)NC(=O)[C@H](CCCCN)NC(=O)[C@H](CCCNC(=N)N)NC(=O)[C@H](Cc1ccc(O)cc1)NC(=O)[C@H](CCCNC(=N)N)NC(=O)[C@H](CO)NC(=O)[C@H](Cc1ccc(O)cc1)NC(=O)[C@H](CO)NC(=O)[C@H](CC(=O)O)NC(=O)[C@@H](NC(=O)[C@@H](N)Cc1ccccc1)[C@@H](C)O)C(=O)N[C@@H](C)C(=O)N[C@H](C(=O)N[C@@H](CCCCN)C(=O)N[C@@H](CCCCN)C(=O)N[C@@H](Cc1ccc(O)cc1)C(=O)N[C@@H](CC(C)C)C(=O)N[C@@H](C)C(=O)N[C@@H](C)C(=O)N[C@H](C(=O)N[C@@H](CC(C)C)C(=O)NCC(=O)N[C@@H](CCCCN)C(=O)N[C@@H](CCCNC(=N)N)C(=O)N[C@@H](Cc1ccc(O)cc1)C(=O)N[C@@H](CCCCN)C(=O)N[C@@H](CCC(N)=O)C(=O)N[C@@H](CCCNC(=N)N)C(=O)N[C@H](C(=O)N[C@@H](CCCCN)C(=O)N[C@@H](CC(N)=O)C(=O)N[C@@H](CCCCN)C(N)=O)C(C)C)C(C)C)C(C)C [PACAP6-38]
- Schild Slope (Gaddum/Schild EC50 shift model): 2.0±0.1
- shift of PACAP1-27 agonist curves, fixed concentration mode (fixed antagonist concentrations up to 1 μM): shifted the curve only at the highest concentration (1 μM); also recorded: induced a shift only at 1 μM
- antagonist activity, variable concentration mode (versus 5 nM PACAP1-27, concentration up to 1 μM): showed antagonism, but it is low potency

— patent US20240294595A1, “GLYCOPEPTIDES AND USES THEREOF” (Arizona Board of Regents on Behalf of the University of …, priority 2013, published 2024)
